Test results published in article doi:10.1101/2022.07.11.499577 (bioRxiv, 2022).

Protein sequences, listed by entry. Tags and fused reporters are not part of them.
UniProt Q12432: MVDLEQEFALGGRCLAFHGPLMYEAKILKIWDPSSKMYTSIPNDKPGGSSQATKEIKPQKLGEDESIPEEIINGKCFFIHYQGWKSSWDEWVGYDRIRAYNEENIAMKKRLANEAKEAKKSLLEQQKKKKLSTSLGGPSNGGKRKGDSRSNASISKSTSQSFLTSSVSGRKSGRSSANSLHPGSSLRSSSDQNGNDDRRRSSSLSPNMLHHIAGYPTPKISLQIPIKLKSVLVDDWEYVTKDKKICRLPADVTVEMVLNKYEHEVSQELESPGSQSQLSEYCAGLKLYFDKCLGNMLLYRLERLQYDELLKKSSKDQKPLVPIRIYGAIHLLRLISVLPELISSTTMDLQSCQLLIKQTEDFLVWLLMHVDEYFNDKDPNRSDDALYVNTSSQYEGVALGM

B1: Eaf5 (protein, UniProt P39995 1-279)
chain: MDKEVSELVVLQLIHTLISNKNEELVRNGGGINMIGNNLRISLVKLTNEIQNNLLINELTNLRRQSNVANGNRKLGINDILTIVKNLFPEYRTTLNDGQLSLHGLEMHDIEKLLDEKYDRFKKTQVEQIRMMEDEILKNGIKTGASQLQPHANAGKSGSAGTSATITTTTPHMAHSMDPKREKLLKLYRDTVLNKLESKTGNFQKLFKSPDGSIIKNEINYEDIKNETPGSVHELQLILQKSITDGVMRKVIGTDDWKLARQVQFELDDTVQFMRRALE
B2: Eaf7 (protein, UniProt P53911 1-425)
chain: MVVHWTIVDEIRLLRWASEFKPAGIHKHFHMFCIVERMNSPDKYPVTLLQKETMKLGKVFTAKDIWDKLSQSYNLEKIDEMENTYSLEATTESSRNGNGNGDDAEIHEETLLELNNRIRVRKQDFTLPWEEYGELILENARKSPNSNEEYPRVEDMNEKDSTIPKESPSTDLKNDNNKQEKNATIKVKELPEYHTEENDSPIDVQKEPIKEVQSDEKELQREHMSEEEQKMKSTNKTAAPVRKSQRLKRSKEVKFEDEEKEEIEEDNTKDEEQKEKKEEIQEPKITHNEEVDKEKNENEEGDDEREKSTSYENTNGSESEGVDEGVDEELGYESEREAEGKGKQIESEGGNLKKKTENKKGDDQQDDTKKDSKDKNEPLAKRTRHSSSTGNTSNETSPKRKRRKAGSRKNSPPATRVSSRLRNKK
B3: Eaf2/Swc4 (natural protein)
chain: MSSSDIFDVLNIKQKSRSPTNGQVSVPSSSAANRPKPQVTGMQRELFNLLGENQPPVVIKSGNNFKEKMLSTSKPSPWSFVEFKANNSVTLRHWVKGSKELIGDTPKESPYSKFNQHLSIPSFTKEEYEAFMNENEGTQKSVESEKNHNENFTNEKKDESKNSWSFEEIEYLFNLCKKYDLRWFLIFDRYSYNNSRTLEDLKEKFYYTCRNYFKASDPSNPLLSSLNFSAEKEIERKKYLQRLLSRSAAEIAEEEALVVESKKFEMAAKRTLAERESLLRLLDSPHSDQTITQYLTSQGMSQLYNALLADKTRKRKHDLNIPENPWMKQQQQFAQHRQLQQLNVKKSEVKENLSPKKTKRQRQEMQTALKRKSESAYAEQLLKDFNSDERKALGVITHGEKLSPGVYLRSTKLSTFKPALQNKILAILQELSLPSRPVMPSFDVMERQEELLKKINTLIDLKKHVDKYEAGMSITK
B4: Esa1 (protein, UniProt Q08649 1-445)
chain: MSHDGKEEPGIAKKINSVDDIIIKCQCWVQKNDEERLAEILSINTRKAPPKFYVHYVNYNKRLDEWITTDRINLDKEVLYPKLKATDEDNKKQKKKKATNTSETPQDSLQDGVDGFSRENTDVMDLDNLNVQGIKDENISHEDEIKKLRTSGSMTQNPHEVARVRNLNRIIMGKYEIEPWYFSPYPIELTDEDFIYIDDFTLQYFGSKKQYERYRKKCTLRHPPGNEIYRDDYVSFFEIDGRKQRTWCRNLCLLSKLFLDHKTLYYDVDPFLFYCMTRRDELGHHLVGYFSKEKESADGYNVACILTLPQYQRMGYGKLLIEFSYELSKKENKVGSPEKPLSDLGLLSYRAYWSDTLITLLVEHQKEITIDEISSMTSMTTTDILHTAKTLNILRYYKGQHIIFLNEDILDRYNRLKAKKRRTIDPNRLIWKPPVFTASQLRFAW
B5: Yng2 (protein, UniProt P38806 1-282)
chain: MDPSLVLEQTIQDVSNLPSEFRYLLEEIGSNDLKLIEEKKKYEQKESQIHKFIRQQGSIPKHPQEDGLDKEIKESLLKCQSLQREKCVLANTALFLIARHLNKLEKNIALLEEDGVLAPVEEDGDMDSAAEASRESSVVSNSSVKKRRAASSSGSVPPTLKKKKTSRTSKLQNEIDVSSREKSVTPVSPSIEKKIARTKEFKNSRNGKGQNGSPENEEEDKTLYCFCQRVSFGEMVACDGPNCKYEWFHYDCVNLKEPPKGTWYCPECKIEMEKNKLKRKRN
B6: Eaf6 (protein, UniProt P47128 1-113)
chain: MTDELKSYEALKAELKKSLQDRREQEDTFDNLQQEIYDKETEYFSHNSNNNHSGHGGAHGSKSHYSGNIIKGFDTFSKSHHSHADSAFNNNDRIFSLSSATYVKQQHGQSQND
B7: Yaf9 (protein, UniProt P53930 1-226)
chain: MAPTISKRIKTLSVSRPIIYGNTAKKMGSVKPPNAPAEHTHLWTIFVRGPQNEDISYFIKKVVFKLHDTYPNPVRSIEAPPFELTETGWGEFDINIKVYFVEEANEKVLNFYHRLRLHPYANPVPNSDNGNEQNTTDHNSKDAEVSSVYFDEIVFNEPNEEFFKILMSRPGNLLPSNKTDDCVYSKQLEQEEIDRIEIGIEKVDKEIDELKQKLENLVKQEAINGS

Target: T1, Epl1 with a TAP tag fused to the C-terminus (S. cerevisiae) (UniProt P43572)
T1 sequence: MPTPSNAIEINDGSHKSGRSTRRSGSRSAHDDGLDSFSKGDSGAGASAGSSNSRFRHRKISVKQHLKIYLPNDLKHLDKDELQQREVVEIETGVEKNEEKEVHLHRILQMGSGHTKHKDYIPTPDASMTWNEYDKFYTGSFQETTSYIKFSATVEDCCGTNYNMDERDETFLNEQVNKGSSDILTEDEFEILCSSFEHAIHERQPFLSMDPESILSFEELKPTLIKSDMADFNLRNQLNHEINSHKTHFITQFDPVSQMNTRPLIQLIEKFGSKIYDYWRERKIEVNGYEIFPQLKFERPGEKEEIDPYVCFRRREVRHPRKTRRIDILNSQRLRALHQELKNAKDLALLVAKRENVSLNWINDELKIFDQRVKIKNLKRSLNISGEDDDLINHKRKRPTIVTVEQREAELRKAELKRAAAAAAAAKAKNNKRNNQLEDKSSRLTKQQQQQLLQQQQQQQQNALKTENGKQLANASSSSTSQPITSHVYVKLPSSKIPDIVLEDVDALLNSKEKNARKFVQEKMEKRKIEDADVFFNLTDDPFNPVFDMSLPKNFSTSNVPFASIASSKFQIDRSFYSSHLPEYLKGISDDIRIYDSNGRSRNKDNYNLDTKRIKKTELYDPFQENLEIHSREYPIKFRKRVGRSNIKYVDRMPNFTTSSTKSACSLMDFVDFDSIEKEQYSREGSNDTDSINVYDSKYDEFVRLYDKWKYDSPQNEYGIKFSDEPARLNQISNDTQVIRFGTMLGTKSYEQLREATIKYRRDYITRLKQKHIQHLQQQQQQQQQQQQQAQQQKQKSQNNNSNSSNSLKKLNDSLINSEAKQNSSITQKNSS
Assay: affinity purification with mass spectrometry

binding, binds:
Eaf3 (from UniProt Q12432 1-401)
Actin (from UniProt P60010 1-375)
B1
B2
B3
B4
B5
B6
B7

No constants are given. Whether binding was seen depends on the method and setting. Binding seen in cells or lysates may run through a third protein. These calls come from enrichment with a bait or labelling near it, and not all partners need be listed. Where a sequence is shown, tags or fusion partners need not be part of it.
